In the supplement of paper PMC11006884:
This list holds what a sample rich in targets with a hit left over. The data scatter; read single values as rough. This is a selection; strong and weak results do not stand in their true shares.

Sequences of proteins named here, by UniProt entry; tags and fusion partners are left off. A change or cut given only in a name is not applied to a line headed by its entry.
UniProt O94885: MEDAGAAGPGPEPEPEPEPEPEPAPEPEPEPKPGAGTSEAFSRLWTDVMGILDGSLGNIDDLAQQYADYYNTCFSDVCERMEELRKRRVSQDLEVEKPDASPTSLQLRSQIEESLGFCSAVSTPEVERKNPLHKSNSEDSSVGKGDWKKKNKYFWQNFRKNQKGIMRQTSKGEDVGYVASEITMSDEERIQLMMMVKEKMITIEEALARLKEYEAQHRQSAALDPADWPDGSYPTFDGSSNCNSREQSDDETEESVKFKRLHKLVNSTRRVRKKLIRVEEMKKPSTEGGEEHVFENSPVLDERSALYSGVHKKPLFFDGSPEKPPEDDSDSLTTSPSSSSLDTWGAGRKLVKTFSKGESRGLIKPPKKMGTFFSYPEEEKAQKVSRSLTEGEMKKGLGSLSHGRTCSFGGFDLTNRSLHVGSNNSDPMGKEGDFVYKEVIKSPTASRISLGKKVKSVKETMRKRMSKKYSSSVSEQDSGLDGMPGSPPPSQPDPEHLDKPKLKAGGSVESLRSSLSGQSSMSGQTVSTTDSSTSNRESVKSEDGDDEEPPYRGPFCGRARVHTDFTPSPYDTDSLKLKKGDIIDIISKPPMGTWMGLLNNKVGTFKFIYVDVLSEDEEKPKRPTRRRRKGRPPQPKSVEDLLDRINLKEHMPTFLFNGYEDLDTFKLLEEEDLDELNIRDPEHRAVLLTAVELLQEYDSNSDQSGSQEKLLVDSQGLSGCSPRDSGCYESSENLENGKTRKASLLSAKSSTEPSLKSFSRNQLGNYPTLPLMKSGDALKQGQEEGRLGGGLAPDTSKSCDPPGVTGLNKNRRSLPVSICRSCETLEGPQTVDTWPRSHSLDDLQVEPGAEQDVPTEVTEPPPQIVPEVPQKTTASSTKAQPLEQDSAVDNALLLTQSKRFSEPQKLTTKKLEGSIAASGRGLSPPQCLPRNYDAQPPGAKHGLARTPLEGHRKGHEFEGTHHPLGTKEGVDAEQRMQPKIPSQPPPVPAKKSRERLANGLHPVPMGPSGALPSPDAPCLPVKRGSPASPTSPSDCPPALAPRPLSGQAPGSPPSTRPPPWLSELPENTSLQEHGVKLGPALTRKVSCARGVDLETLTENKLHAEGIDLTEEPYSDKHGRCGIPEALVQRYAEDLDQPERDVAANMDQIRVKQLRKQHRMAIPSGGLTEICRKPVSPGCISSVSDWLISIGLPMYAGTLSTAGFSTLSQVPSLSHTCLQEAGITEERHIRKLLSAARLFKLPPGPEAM
UniProt P04179: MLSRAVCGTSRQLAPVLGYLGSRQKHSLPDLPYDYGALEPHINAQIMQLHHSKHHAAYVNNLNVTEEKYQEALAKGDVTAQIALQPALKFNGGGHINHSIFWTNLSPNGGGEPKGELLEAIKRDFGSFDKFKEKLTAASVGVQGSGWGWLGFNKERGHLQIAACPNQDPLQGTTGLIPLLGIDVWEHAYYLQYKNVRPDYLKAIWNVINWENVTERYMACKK
UniProt O95551: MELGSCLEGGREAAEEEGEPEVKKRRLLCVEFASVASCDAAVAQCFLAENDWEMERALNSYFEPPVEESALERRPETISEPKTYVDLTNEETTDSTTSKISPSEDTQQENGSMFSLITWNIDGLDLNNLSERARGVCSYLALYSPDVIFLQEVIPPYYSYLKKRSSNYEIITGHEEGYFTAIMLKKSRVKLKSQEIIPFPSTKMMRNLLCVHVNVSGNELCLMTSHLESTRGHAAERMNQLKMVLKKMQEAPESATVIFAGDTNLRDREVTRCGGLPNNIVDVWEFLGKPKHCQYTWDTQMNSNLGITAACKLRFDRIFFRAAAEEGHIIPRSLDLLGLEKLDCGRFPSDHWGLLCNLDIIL
UniProt O95140: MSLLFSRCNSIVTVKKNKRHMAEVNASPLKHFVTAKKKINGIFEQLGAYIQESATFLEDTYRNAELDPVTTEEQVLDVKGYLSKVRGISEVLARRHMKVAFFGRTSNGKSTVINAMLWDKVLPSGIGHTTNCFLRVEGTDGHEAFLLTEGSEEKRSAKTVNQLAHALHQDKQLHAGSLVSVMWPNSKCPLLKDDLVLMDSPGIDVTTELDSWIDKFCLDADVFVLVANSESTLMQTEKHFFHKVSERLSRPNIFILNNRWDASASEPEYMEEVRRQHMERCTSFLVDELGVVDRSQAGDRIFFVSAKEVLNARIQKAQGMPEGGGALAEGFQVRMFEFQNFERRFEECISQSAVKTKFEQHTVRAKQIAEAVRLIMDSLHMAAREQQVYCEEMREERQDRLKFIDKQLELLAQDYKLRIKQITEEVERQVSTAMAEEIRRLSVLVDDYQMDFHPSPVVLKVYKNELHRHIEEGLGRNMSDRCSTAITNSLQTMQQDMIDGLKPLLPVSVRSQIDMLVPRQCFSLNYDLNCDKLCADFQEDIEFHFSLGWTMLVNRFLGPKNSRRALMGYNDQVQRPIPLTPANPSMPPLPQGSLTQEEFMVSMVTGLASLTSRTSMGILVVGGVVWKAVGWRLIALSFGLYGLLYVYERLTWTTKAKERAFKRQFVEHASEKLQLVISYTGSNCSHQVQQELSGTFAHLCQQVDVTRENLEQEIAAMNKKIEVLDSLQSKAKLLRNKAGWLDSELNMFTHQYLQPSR
UniProt O95453: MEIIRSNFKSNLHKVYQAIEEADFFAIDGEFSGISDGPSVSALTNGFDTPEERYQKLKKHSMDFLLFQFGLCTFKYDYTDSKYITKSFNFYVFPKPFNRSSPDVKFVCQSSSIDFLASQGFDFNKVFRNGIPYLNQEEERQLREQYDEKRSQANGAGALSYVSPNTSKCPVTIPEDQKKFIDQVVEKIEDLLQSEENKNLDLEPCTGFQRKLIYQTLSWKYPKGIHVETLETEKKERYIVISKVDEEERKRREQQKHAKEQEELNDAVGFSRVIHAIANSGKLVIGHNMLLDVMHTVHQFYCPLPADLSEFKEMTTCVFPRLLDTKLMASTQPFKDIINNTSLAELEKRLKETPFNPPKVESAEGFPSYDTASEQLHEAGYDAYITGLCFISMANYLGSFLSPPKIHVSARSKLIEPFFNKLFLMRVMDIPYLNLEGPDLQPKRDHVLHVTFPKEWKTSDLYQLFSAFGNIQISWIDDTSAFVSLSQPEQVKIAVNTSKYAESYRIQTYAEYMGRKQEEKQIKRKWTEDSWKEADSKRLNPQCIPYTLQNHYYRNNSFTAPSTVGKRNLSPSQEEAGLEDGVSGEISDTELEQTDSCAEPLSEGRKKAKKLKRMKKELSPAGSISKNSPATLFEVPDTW
UniProt O94966: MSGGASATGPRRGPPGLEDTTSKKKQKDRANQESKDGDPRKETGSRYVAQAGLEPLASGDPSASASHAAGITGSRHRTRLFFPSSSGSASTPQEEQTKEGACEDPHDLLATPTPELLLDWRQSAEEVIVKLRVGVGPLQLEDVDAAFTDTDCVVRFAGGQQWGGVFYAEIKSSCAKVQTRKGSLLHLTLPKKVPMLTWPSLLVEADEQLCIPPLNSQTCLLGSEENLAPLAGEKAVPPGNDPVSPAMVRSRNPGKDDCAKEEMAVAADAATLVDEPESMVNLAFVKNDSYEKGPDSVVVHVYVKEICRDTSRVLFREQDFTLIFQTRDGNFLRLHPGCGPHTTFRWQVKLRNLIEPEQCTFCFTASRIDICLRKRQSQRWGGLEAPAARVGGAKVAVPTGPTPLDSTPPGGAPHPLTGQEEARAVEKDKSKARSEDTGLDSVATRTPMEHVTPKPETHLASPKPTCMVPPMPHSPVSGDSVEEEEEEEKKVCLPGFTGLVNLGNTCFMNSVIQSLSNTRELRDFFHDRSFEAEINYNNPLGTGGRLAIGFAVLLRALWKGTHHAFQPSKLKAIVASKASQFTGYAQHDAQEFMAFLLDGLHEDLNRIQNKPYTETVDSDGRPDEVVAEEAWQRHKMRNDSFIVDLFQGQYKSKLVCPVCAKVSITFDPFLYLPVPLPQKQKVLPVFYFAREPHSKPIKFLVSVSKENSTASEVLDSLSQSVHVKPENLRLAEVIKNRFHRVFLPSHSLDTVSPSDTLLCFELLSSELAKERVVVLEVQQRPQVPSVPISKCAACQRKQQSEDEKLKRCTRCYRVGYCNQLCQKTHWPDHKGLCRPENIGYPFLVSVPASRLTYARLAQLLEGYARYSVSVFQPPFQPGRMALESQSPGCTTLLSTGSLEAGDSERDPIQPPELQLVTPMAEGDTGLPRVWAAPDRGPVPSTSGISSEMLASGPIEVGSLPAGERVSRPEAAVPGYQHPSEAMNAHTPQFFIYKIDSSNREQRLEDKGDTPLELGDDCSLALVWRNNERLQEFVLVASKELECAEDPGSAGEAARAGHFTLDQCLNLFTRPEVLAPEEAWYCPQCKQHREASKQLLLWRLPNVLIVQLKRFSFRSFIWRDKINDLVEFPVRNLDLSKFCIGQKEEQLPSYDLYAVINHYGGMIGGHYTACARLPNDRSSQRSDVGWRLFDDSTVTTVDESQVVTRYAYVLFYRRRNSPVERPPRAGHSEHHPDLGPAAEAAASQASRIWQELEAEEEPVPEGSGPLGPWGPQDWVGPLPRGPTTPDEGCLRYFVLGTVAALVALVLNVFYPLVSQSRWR
UniProt O95602, whole entry, looked up: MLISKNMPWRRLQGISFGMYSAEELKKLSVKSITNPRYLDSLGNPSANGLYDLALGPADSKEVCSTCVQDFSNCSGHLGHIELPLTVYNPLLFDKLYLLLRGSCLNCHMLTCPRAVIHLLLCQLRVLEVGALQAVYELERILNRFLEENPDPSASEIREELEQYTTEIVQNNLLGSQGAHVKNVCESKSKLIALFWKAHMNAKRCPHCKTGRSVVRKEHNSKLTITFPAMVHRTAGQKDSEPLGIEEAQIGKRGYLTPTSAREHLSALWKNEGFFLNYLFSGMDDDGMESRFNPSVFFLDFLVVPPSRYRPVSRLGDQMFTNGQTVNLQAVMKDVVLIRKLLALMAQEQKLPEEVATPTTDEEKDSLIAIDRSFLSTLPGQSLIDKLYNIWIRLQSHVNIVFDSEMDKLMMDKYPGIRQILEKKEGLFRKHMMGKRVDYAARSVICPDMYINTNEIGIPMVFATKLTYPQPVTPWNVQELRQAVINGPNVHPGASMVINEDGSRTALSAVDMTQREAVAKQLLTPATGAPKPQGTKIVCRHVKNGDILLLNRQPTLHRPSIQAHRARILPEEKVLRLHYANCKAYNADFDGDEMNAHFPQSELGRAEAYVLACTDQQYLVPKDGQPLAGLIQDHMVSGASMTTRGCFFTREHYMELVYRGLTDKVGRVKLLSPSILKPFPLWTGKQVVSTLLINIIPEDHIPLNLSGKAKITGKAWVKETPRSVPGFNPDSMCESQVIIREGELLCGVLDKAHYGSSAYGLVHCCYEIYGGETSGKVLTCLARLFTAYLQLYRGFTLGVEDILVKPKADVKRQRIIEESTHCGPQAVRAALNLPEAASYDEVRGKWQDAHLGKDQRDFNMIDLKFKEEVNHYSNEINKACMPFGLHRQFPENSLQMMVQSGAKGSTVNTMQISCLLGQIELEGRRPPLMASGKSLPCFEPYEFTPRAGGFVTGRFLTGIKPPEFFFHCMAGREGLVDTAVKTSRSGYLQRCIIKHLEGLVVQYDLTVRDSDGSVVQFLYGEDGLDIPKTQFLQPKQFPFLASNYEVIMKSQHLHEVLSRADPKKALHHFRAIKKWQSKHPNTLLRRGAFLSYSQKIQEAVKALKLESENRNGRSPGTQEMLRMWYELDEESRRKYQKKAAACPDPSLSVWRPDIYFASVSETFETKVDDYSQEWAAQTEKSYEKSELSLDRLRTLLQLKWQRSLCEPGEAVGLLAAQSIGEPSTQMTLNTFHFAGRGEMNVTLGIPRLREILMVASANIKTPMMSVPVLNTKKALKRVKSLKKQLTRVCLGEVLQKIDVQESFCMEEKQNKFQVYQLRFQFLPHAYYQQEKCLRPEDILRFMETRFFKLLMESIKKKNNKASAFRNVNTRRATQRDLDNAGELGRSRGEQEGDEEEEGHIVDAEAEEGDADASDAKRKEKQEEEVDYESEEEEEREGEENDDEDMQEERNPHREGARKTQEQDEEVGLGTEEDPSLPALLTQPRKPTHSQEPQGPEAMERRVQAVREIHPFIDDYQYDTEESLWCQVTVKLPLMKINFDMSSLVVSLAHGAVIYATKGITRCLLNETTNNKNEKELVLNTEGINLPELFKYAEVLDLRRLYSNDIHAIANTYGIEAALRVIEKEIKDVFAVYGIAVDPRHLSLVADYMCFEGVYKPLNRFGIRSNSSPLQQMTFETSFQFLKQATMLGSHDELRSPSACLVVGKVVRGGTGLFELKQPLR
UniProt P06730, whole entry: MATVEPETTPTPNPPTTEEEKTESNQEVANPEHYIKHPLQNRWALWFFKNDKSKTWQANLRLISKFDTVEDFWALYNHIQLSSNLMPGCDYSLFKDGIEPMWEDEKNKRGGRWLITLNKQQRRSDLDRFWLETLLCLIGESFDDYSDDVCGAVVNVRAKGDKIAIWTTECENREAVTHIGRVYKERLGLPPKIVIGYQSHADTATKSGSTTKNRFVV

Compound: COC(=O)/C=C/c1ccccc1 [methyl cinnamate]
Assay: log2 ratio of iodoacetamide-alkyne labeling of the cysteine site, DMSO over compound (competition); higher = stronger covalent engagement of the cysteine by the compound, active = 1 or more
Details: 500 µM; treatment time 1 h; system: HEK293T cell lysate
Procedure, shortened: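 After 1 h at ambient temperature with vehicle or electrophile (500 µM), HEK293T lysate (2 mg/mL) was labelled for 1 h with iodoacetamide alkyne and clicked to sCIP-TMT reagents. Pooled samples were trypsin-digested overnight at 37 °C, streptavidin-enriched, acid-eluted and analysed by Orbitrap Eclipse LC-MS/MS with FAIMS, then quantified in FragPipe over three replicates with duplicate channels. A cysteine's log2 competition ratio is its mean control-channel over mean compound-channel reporter intensity. Cysteines quantified in only one replicate were not included.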

log2 ratio of iodoacetamide-alkyne labeling, inactive:
HPRT1 C206 (UniProt P00492) 0.161, SASH1 C406 (UniProt O94885) 0.284, HERC2 C221 (UniProt O95714) -0.0658, TXNDC12 C66 (UniProt O95881) 0.238, SOD2 C164 (UniProt P04179) -0.205, UniProt O95551_C273 -0.413, MFN2 C348 (UniProt O95140) 0.161, ACSL3 C652 (UniProt O95573) -0.0508, UBE4B C448 (UniProt O95155) 0.0832, CAT C377 (UniProt P04040) 0.0331, MYC C70 (UniProt P01106) 0.34, CPSF4 C41 (UniProt O95639) 0.111, KIF4A C269 (UniProt O95239) 0.159, GAPDH C247 (UniProt P04406) -0.00382, PARN C169 (UniProt O95453) 0.33, USP19 C833 (UniProt O94966) 0.0307, UniProt P07437_C127 0.0678, POLR1A C582 (UniProt O95602) -0.0285, PGK1 C316 (UniProt P00558) 0.000852, GOT2 C106 (UniProt P00505) 0.398, EIF4E C170 (UniProt P06730) 0.16, SOD1 C58 (UniProt P00441) -0.0125
